For the test, the target named is GFP-Zasp52 (endogenous GFP fusion, line G00189) (Drosophila melanogaster (endogenous in adult fly thoraces)) (UniProt A1ZA47). Briefly: co-IP; extracts of 50 adult fly thoraces in 25 mM Tris-HCl pH 8, 150 mM NaCl, 1 mM EDTA, 0.5% TritonX-100, 5% glycerol; GFP-Trap-M anti-GFP beads, 2 h at 4°C; immunoblot. For orientation: In western blotting, separated proteins are transferred to a membrane and probed.

By UniProt entry, the sequences of proteins in these tests, tags left out. Where a name states a change or a piece, a line headed by the entry shows the natural chain unless it says otherwise. Chains listed by the source or under a name are the forms on record and can include a tag or linker.
UniProt A1ZA47: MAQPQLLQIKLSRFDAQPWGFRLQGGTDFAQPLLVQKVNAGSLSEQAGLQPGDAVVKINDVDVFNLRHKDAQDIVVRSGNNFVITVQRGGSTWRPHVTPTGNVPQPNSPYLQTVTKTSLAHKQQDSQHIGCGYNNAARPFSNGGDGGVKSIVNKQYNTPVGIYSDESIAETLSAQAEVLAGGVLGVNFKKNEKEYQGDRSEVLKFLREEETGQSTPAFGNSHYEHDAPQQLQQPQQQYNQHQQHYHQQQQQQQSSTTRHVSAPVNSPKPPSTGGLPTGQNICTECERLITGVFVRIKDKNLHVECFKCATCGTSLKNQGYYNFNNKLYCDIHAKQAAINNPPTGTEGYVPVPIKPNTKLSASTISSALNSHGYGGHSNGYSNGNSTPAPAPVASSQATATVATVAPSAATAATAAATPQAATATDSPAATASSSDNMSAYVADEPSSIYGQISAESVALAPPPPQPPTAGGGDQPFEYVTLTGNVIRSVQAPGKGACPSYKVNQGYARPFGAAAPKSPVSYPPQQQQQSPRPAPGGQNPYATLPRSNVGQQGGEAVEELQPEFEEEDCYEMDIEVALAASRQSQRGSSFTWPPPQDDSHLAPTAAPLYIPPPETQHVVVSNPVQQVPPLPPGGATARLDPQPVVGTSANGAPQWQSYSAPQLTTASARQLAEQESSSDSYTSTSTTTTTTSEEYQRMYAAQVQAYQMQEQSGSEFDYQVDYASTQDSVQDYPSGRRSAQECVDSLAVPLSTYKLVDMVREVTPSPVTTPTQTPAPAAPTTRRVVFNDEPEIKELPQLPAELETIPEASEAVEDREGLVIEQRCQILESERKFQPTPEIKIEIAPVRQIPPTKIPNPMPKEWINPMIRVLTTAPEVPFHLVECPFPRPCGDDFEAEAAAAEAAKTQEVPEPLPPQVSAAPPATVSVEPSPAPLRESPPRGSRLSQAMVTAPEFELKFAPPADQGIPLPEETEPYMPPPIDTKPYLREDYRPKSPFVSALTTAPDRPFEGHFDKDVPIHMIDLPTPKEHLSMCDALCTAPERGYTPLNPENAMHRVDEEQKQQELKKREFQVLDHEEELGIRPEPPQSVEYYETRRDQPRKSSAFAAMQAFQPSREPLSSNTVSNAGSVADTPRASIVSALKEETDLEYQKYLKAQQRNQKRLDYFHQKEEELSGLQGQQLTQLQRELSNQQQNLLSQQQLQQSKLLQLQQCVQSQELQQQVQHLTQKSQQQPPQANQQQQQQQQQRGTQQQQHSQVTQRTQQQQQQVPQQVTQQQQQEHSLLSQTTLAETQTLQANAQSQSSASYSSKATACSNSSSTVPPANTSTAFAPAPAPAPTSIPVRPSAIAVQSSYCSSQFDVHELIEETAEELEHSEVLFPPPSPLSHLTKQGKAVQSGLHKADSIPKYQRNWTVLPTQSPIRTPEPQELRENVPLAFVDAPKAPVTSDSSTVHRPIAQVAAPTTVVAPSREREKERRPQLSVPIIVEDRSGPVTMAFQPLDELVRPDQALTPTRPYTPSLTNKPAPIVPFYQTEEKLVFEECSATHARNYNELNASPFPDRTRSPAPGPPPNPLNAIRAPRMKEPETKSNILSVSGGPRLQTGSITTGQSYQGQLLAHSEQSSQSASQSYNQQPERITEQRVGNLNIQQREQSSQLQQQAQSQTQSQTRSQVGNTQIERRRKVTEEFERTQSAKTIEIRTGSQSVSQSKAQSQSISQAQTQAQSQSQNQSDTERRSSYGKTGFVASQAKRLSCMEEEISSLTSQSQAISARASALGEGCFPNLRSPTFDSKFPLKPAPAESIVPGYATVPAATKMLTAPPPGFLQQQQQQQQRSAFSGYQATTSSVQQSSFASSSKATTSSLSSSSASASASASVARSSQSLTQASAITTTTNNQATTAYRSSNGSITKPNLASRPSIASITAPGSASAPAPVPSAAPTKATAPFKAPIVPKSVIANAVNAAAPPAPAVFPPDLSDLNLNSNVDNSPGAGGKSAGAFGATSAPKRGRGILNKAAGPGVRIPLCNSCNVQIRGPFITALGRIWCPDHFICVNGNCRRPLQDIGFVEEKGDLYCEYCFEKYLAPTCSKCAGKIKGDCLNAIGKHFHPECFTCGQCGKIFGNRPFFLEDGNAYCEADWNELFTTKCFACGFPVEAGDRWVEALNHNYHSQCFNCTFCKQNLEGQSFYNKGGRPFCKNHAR
α-actinin (endogenous, Drosophila) (P18091, form named): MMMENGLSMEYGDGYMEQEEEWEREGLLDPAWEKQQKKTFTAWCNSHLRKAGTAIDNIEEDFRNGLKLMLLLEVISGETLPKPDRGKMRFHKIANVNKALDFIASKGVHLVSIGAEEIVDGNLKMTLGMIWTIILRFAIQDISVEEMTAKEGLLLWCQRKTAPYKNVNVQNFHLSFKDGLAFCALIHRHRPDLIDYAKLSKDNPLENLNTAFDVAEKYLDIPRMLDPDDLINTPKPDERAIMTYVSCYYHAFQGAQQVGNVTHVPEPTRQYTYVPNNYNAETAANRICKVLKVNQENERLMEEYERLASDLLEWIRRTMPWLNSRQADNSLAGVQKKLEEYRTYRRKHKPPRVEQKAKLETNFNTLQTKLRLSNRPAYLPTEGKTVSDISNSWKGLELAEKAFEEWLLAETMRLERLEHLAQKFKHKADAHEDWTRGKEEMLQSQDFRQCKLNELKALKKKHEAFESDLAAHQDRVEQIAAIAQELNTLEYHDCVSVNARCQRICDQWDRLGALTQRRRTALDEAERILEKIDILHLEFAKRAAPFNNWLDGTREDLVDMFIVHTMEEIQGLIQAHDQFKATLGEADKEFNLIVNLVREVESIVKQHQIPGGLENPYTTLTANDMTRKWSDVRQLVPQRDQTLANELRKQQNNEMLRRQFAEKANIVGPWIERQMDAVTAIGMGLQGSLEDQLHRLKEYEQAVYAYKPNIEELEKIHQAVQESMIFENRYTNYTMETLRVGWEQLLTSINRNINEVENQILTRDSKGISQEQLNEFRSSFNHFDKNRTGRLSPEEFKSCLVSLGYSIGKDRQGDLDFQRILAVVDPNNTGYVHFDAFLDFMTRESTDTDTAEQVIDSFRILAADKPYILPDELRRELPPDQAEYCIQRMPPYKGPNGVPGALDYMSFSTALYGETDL

No constants are given. Whether binding was seen depends on the method and setting. Binding seen in cells or lysates may run through a third protein. Some entries that bind do so weakly or less than the wild type.

As to “α-actinin (endogenous, Drosophila) (from UniProt P18091 1-917)”, the binding entry is reported as “binds”.

The values are drawn from publication PMC3591300.
